The record followed here is patent publication US8552018B2, “Substituted tricyclic compounds as protein kinase inhibitors” (Arizona Board of Regents on behalf of the University of …, priority 2003, dated 2013).

pIC50: −log10 of the molar value.

Common to all, as to type: cell-based
One assay deals with LNCaP prostate cells. Nature of the assay: MTT assay. Particulars: Homo sapiens, read-out: IC50 (cell survival reduced to 50% of vehicle-treated controls), FIG. 30. How it is done:
An MTT assay was performed to determine the number of viable cells in each well for each concentration of compound, and also for a set of vehicle controls (DMSO).
On the technique in general: Tetrazolium dyes change colour on reduction, which living cells bring about.

The test system of a further assay is GIST882 cell line. Briefly: Cancer cell cytotoxicity assay (sulforhodamine B). Particulars: Homo sapiens, 96 h; GIST882, 4 days; read-out: IC50 c-kit GIST882. How it is done:
(§1) To validate the hypothesis that the designed c-kit/PDGFR tyrosine kinase inhibitors mediate GIST882 cell killing and PDGFR-mediated cell killing of pancreatic cancer cell lines (CFPAC-1, PANC-1 and MIA PaCa-2), an in vitro cytotoxicity assay was performed. The GIST882 cell line used in this study has a c-kit gain-of-function mutation (K642E). The assay utilized the Cell Titer 965 Non-Radioactive Cell Proliferation Assay (Promega Corp., Madison, Wis.). First the cells were cultured. GIST882 cells were provided by Dr. Jonathan A. Fletcher (Dana-Farber Cancer Institute, Boston, Mass.). PANC-1 and MIAPaCa-2 cells were provided by Dr. Daniel Von Hoff (Arizona Cancer Center, Tucson, Ariz.). […]
(§2) Cells were plated at a density of 2000 to 10000 cells per well, depending on their growth rate, in 0.1 mL medium on day 0 in 96-well Falcon microtiter plates (#3072, Becton-Dickinson Labware, Lincoln Park, N.J.). […] The absorbance of each well was read on a plate reader (Wallac Vector^2, PerkinElmer) at the wavelength of 570 nm. Data were expressed as the percentage of survival of control calculated from the absorbance corrected for background absorbance. The surviving percent of cells was determined by dividing the mean absorbance values of the […] by the mean absorbance values of the control and multiplying by 100.

In assay [1] the test system is pancreatic cancer cell lines MIAPaCa-2 and PANC-1. Briefly: Cancer cell cytotoxicity assay, range over both pancreatic lines. As to conditions: potency order. How it is done:
as §1, §2

As usually defined, the pIC50 is −log10 of the IC50, conventionally taken in molar units. Take `Cc1ccc(NC(=O)c2ccc(CN3CCN(C)CC3)cc2)cc1Nc1nccc(-c2cccnc2)n1` [STI571, reference compound]: the negative-log IC50 (pIC50) with LNCaP prostate cells was less than 5.00; with GIST882 cell line it was 7.00; in assay [1], 4.62 to 4.70.
